Measured values published in PubChem BioAssay AID1671190 (National Center for Advancing Translational Sciences (NCATS), 2021).
Out of some 580,000 compounds screened, about 6,100 (1.1%) were called active. Not shown: some 15% with an inconclusive outcome. Calls come from the whole dose curve; as a rule, active = well fitted inhibition curve with a large enough effect; inconclusive = small, poorly fitted or top-dose-only effect, or another doubt; inactive = no such curve, though single readings can be large or run the other way. The entries are a selection whose mix differs from that of the whole data set. The source gives no active or inactive call for entries shown without one. Where a structure was tested more than once in an assay, its records may differ in their call.

By UniProt entry, the sequences of proteins in these tests, tags left out.
UniProt P18054, whole entry, looked up: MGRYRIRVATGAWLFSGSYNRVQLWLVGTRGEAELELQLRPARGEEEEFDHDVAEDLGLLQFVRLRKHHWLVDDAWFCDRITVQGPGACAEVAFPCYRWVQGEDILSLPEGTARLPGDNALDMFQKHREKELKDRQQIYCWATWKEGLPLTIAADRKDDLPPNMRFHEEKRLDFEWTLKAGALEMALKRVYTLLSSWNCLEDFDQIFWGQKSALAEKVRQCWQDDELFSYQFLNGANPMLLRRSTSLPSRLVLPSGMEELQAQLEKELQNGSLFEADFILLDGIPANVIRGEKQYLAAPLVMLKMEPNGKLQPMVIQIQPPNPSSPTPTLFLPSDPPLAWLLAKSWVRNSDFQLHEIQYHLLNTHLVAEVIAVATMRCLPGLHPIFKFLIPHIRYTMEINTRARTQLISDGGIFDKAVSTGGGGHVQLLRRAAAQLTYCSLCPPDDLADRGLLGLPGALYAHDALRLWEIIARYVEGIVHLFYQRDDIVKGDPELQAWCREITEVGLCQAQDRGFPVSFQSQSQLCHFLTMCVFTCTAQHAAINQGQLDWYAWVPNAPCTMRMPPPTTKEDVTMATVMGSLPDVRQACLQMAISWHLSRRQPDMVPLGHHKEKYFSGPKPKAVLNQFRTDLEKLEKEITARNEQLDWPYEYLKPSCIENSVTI

Each compound was assayed against Polyunsaturated fatty acid lipoxygenase ALOX12 (Homo sapiens) (UniProt P18054) (assay: Primary qHTS assay for inhibitors of human arachidonate 12S-lipoxygenase (ALOX12): Round 2). Conditions: purified 12hLO, xylenol orange hydroperoxide absorbance; activity change, negative = inhibition: at 0.00344 µM (top of the series).
Procedure, shortened: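 Hydroperoxide product was detected by ferrous iron/xylenol orange as the 573 to 405 nm absorbance ratio. Arachidonic acid at 40 uM (final) was turned over for 30 min at room temperature by 150 nM human 12hLO, pH 7.0 Hepes buffer, after 15 min compound preincubation.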
% is set by controls: 0 for no effect and ±100 for the full control effect; potency is the fitted concentration of half-maximal effect.

Compound | activity change, negative = inhibition [%] | Potency
CC(O)Cn1cnc2c1c(=O)n(C)c(=O)n2C (stereo not given) | 27.8 | –
CC(C)=CCc1c(O)ccc2c1OC(c1ccc(O)c(O)c1)CC2=O (stereo not given) | – | active: 28.2 µM
CCC(C)(C)c1ccc2c(C(=O)N3C[C@H](N)C[C@H]3C(=O)NC)csc2c1 | – | active: 12.6 µM
NS(=O)(=O)c1cc2c(cc1Cl)NC(C1CC3C=CC1C3)NS2(=O)=O (stereo not given) | -22.6 | –
CC(=O)CC(c1ccccc1)c1c(O)c2ccccc2oc1=O (stereo not given) | 5.21 | –
O=[N+]([O-])c1cccc(-c2ccc(CN3CCN(c4ccccc4)CC3)o2)c1 | – | active: 7.08 µM
CCOc1ccc(S(=O)(=O)N(CC(=O)N/N=C/c2ccc(-c3ccc([N+](=O)[O-])cc3)o2)c2ccccc2)cc1 | – | active: 31.6 µM
NC(N)=NC(=O)c1nc(Cl)c(N)nc1N | 28.8 | –
O=C(Cc1ccc(Cl)cc1)N1CCC2(CC1)NC(=O)N(c1cccc(F)c1)N2 | – | active: 3.16 µM
CNC(=O)c1cc(Oc2ccc(NC(=O)Nc3ccc(Cl)c(C(F)(F)F)c3)cc2)ccn1 | 16.5 | –
CCN1CCN(C(=O)N[C@@H](C(=O)N[C@@H]2C(=O)N3[C@@H]2SC(C)(C)[C@H]3C(=O)O)c2ccccc2)C(=O)C1=O | 3.41 | –
COc1cccc2c1C(=O)c1c(O)c3c(c(O)c1C2=O)C[C@@](O)(C(C)=O)C[C@@H]3O[C@H]1C[C@H](N)[C@H](O)[C@H](C)O1 | -10.5 | –
O=C1/C(=C/c2ccco2)SC(=S)N1CCC(=O)N1CCCCC1CCO (stereo not given) | – | active: 44.7 µM
O=C(O)c1ccccc1OP(=O)(O)O | -23.3 | –
NC(CS)C(=O)O (stereo not given) | 21.3 | –
Cc1c(N)cccc1C(F)(F)F | -16.4 | –
C[C@]12CCC(=O)C=C1[C@@H]1C[C@@H]1[C@H]1[C@@H]3[C@@H]4C[C@@H]4[C@@]4(CCC(=O)O4)[C@@]3(C)CC[C@@H]12 | 8.43 | –
Cc1nc(N)nc(N)c1-c1ccc(Cl)c(Cl)c1 | 14.6 | –
O[C@@H](CNC[C@H](O)[C@H]1CCc2cc(F)ccc2O1)[C@@H]1CCc2cc(F)ccc2O1 | -22 | –
Oc1ccc(Cl)cc1Sc1cc(Cl)ccc1O | 11.6 | –
CC1(C)S[C@@H]2[C@H](NC(=O)[C@H](N)c3ccccc3)C(=O)N2[C@H]1C(=O)O | 7.51 | –
CCS(=O)(=O)c1ccc(OC)c(C(=O)OC)c1 | -45.2 | –
Cc1ccc2c(=O)c(-c3nc(-c4ccc(Cl)cc4)no3)cn(CC(=O)NCc3ccco3)c2n1 | – | active: 20 µM
CCCc1ccc(C2C3=C(CC(C)(C)CC3=O)NC3=C2C(=O)c2ccccc23)cc1 (stereo not given) | – | active: 25.1 µM

Compound | activity change, negative = inhibition [%] | Potency
C/C(=N/NC(=O)c1ccncc1)C(=O)O | -27.8 | –
NC(=O)c1cnccn1 | 16 | –
O=C(CCNNC(=O)c1ccncc1)NCc1ccccc1 | 3.58 | –
Cc1nc2ccccn2c(=O)c1CCN1CCC(C(=O)c2ccc(F)cc2)CC1 | -8.95 | –
Cc1ccccc1N1CCN(CCc2nnc3n2CCCC3)CC1 | -7.85 | –
C/C=C/c1ccc(OC)cc1 | -24.3 | –
CCCCCCCCOc1ccc(C(=O)c2ccccc2)c(O)c1 | -20.7 | –
COc1nccnc1NS(=O)(=O)c1ccc(N)cc1 | 21.4 | –
CC(N)CCCC(C)(C)O (stereo not given) | 14.6 | –
CCCOc1cccc(C2C(C(=O)c3ccco3)=C(O)C(=O)N2c2nnc(C)s2)c1 (stereo not given) | – | active: 7.94 µM
C=CCc1cccc(OC)c1OCCOCCNCCO | – | active: 2.24 µM
O=C(O)c1ccccc1S | -9.43 | –
Oc1cccc(O)c1 | -17.5 | –
CC(=O)N(c1onc(C)c1C)S(=O)(=O)c1ccc(N)cc1 | -20.1 | –
Cc1cc(O)cc(C)c1Cl | 49 | –
CCC(=O)Oc1ccc2c(c1)CC[C@@H]1[C@@H]2CC[C@@]2(C)[C@H]1C[C@@H](OC(=O)CC)[C@@H]2OC(=O)CC | 3.83 | –
O=C1c2ccccc2C(=O)C1c1ccc(Br)cc1 | -14.6 | –
O=C(CN1C(=O)NC(c2ccc(Cl)cc2)C2=C1COC2=O)Nc1cc(F)cc(F)c1 (stereo not given) | – | active: 11.2 µM
CN1CCCN(C(c2ccccc2)c2ccc(Cl)cc2)CC1 (stereo not given) | -8.17 | –
C[C@@H]1C[C@H]2[C@@H]3CCC4=CC(=O)C=C[C@]4(C)[C@@]3(Cl)[C@@H](O)C[C@]2(C)[C@@]1(OC(=O)c1ccco1)C(=O)CCl | 0.908 | –
O=C(O)c1ccccc1O | 1.45 | –
CCc1cccc(CC)c1NC(=O)CN(CC(=O)O)CC(=O)O | -13.2 | –
CCOc1ccc(C(=O)OCCN(CC)CC)cc1 | 24.9 | –
C=C1c2cccc(O)c2C(O)=C2C(=O)[C@]3(O)C(O)=C(C(N)=O)C(=O)[C@@H](N(C)C)[C@@H]3[C@@H](O)[C@H]12 | -6.11 | –
Cc1ncc(CO)c(/C=N/NC(=S)Nc2ccc(Cl)c(Cl)c2)c1O | – | active: 44.7 µM

Quoted from above for reference:
Compound | activity change, negative = inhibition [%] | Potency
CCCCCCCCOc1ccc(C(=O)c2ccccc2)c(O)c1 | -20.7 | –
COc1nccnc1NS(=O)(=O)c1ccc(N)cc1 | 21.4 | –
